{
  "source": "PubChem BioAssay AID1347076",
  "about": "(National Center for Advancing Translational Sciences (NCATS), 2019)",
  "note": "The campaign covered roughly 400,000 compounds. About 13,000 (3.2%) were called active. The inconclusive results got no clear call from the source; some entries with a clear call stand among them for comparison. Calls follow the shape of the dose curve; as a rule, active = well fitted cell-killing curve with a large enough effect; inconclusive = small, poorly fitted or top-dose-only effect, or effect the other way; inactive = flat fitted curve, though single readings scatter. A potency beside an inconclusive call is a rough fit, not a confirmed value.",
  "data": [
    {"assay": "qHTS assay for MDR1-selective chemotherapeutics: Primary screen using the drug-selected MDR subline cells KB-V1; also: nearly all actives have a fitted effect of over 60% in size; also: potency is read from the fitted curve at half-maximal effect; as to activity change, negative = cytotoxicity: % is scaled to controls: 0 for no effect and ±100 for the full control effect", "details": "KB-V1 MDR cells viability, CellTiter-Glo, 72 h; activity change, negative = cytotoxicity: at 46.1 µM (top of the series)", "outline": "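Drug-selected KB-V1 cells, grown in DMEM lacking phenol red with 10% FBS, receive compound titrations; after three days at 37 degrees C, surviving cell ATP is quantified by CellTiter-Glo luminescence and responses normalized and curve-fitted.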", "values": [
      {"compound": "O=C(c1ccccc1)N1CCN2C(=O)c3ccccc3C12c1ccc(Cl)cc1", "note": "(stereo unspecified)", "Potency": "inconclusive: 18.4 µM [cytotoxic, partial curve, poor fit]"},
      {"compound": "O=C(CCCN1C(=O)c2cccc3cccc(c23)C1=O)N1CCN(c2ccc(F)cc2)CC1", "Potency": "inconclusive: 10.3 µM [cytotoxic, partial curve]"},
      {"compound": "C[C@H](CO)N1C[C@H](C)[C@@H](CN(C)Cc2ccc(-c3ccccc3)cc2)OCc2cnnn2CCCC1=O", "Potency": "inconclusive: 0.0052 µM [rising, full curve, poor fit]"},
      {"compound": "CCN(CC)C(=O)C1CCC(CNS(=O)(=O)c2cccc3cccnc23)CC1", "note": "(stereo unspecified)", "Potency": "inactive"},
      {"compound": "CC1CCC2C(=O)N(c3cccc(OS(=O)(=O)c4ccccc4)c3)C(=O)C2C1", "note": "(stereo unspecified)", "Potency": "inconclusive: 20.6 µM [cytotoxic, single point]"},
      {"compound": "C[C@H]1CN([C@@H](C)CO)C(=O)c2cccc(NC(=O)c3cnccn3)c2O[C@@H]1CN(C)S(=O)(=O)c1ccc(F)cc1", "Potency": "inactive"},
      {"compound": "COc1ccc(C)cc1NC(=O)C1CCN(S(=O)(=O)c2ccccc2)CC1", "Potency": "inconclusive: 29.1 µM [cytotoxic, single point]"},
      {"compound": "Cc1ccc(CC2S/C(=N/N=C/c3ccco3)NC2=O)cc1", "note": "(stereo unspecified)", "Potency": "inactive"},
      {"compound": "Cc1ccc(N2CC(C(=O)Nc3cccc(F)c3)CC2=O)cc1", "note": "(stereo unspecified)", "Potency": "inconclusive: 23.1 µM [cytotoxic, single point]"},
      {"compound": "CN(C)CCCNCC(=O)c1c(-c2ccccc2)n(C)c2ccccc12", "Potency": "inconclusive: 25.9 µM [cytotoxic, single point]"},
      {"compound": "CCOc1ccc(NC(=O)CSc2nc3c(oc4ccccc43)c(=O)n2-c2cc(C)cc(C)c2)cc1", "Potency": "inconclusive: 23.1 µM [rising, partial curve, poor fit]"},
      {"compound": "CC(C)(CO)NC(=O)CC1C(=O)NCCN1CC(c1ccccc1)c1ccccc1", "note": "(stereo unspecified)", "Potency": "inconclusive: 29.1 µM [rising, single point]"},
      {"compound": "CCC(C)(C)NC(=O)CN(Cc1ccc(F)cc1)C(=O)CCC(=O)Nc1ccccn1", "Potency": "inconclusive: 4.11 µM [cytotoxic, full curve]"},
      {"compound": "Cc1c(C(=O)NCc2ccc(Cl)c(Cl)c2)sc(=O)n1Cc1ccccc1F", "Potency": "inconclusive: 18.4 µM [cytotoxic, partial curve]"},
      {"compound": "COC(=O)[C@@]12C[C@@H](CC(=O)N3CCCCC3)C(=O)N(Cc3cccc4ccccc34)C1=CCC(C)(C)C2", "Potency": "inconclusive: 14.6 µM [cytotoxic, partial curve]"},
      {"compound": "CSCC[C@H](NC(=O)[C@@H]1Cc2ccccc2CN1)C(=O)NC1CCCCC1", "Potency": "inconclusive: 4.11 µM [rising, partial curve, poor fit]"},
      {"compound": "COc1ccc(-c2csc(C(C)(O)c3ccncc3)n2)cc1OC", "note": "(stereo unspecified)", "Potency": "inconclusive: 9.2 µM [cytotoxic, partial curve]"},
      {"compound": "COc1cccc(OC)c1C(=O)Nc1ccc(N2CCN(S(C)(=O)=O)CC2)cc1", "Potency": "inconclusive: 9.2 µM [rising, partial curve, poor fit]"},
      {"compound": "O=C(NCCCN1CCOCC1)c1cccc(S(=O)(=O)N2CCOCC2)c1", "Potency": "inactive"},
      {"compound": "COc1ccc2[nH]c3c(N4CCc5ccccc5C4)ncnc3c2c1", "Potency": "active: 2.59 µM"},
      {"compound": "CC(C)(CO)Nc1nc(Nc2ccccc2)nc(Nc2ccccc2)n1", "Potency": "inconclusive: 18.4 µM [cytotoxic, single point]"},
      {"compound": "COc1cc(C(=O)Nc2ccc3c(c2)nc(C)n3C)cc(OC)c1OC", "Potency": "inactive"},
      {"compound": "CCC(C(=O)N1CCN(c2ccccc2OC)CC1)c1ccccc1", "note": "(stereo unspecified)", "Potency": "active: 20.6 µM"},
      {"compound": "CC(C)NC(=O)CN1CCN(C(=O)c2ccc3oc(CCCc4ccccc4)nc3c2)CC1", "Potency": "inconclusive: 16.4 µM [cytotoxic, single point]"},
      {"compound": "Cc1cc(Sc2ncnc(N)c2[N+](=O)[O-])ncn1", "Potency": "inconclusive: 29.1 µM [cytotoxic, single point]"},
      {"compound": "C=CCN(C(=O)CC(NC(C)=O)c1ccccc1)c1nc(-c2ccc(S(C)(=O)=O)cc2)cs1", "note": "(stereo unspecified)", "Potency": "inconclusive: 29.1 µM [cytotoxic, single point]"},
      {"compound": "Cc1ccc2c3c(cccc13)-c1ccccc1C2=O", "Potency": "inconclusive: 5.8 µM [cytotoxic, full curve]"},
      {"compound": "CCCCc1ccc(S(=O)(=O)N2CCC3(CC2)OCCO3)cc1", "Potency": "inconclusive: 16.4 µM [cytotoxic, partial curve]"},
      {"compound": "CCCCCCCCNc1ncnc2ccccc12", "Potency": "active: 0.184 µM"},
      {"compound": "COc1cccc(/C=C2/SC(=S)N(CCC(=O)N3CCOCC3)C2=O)c1", "Potency": "inconclusive: 29.1 µM [cytotoxic, single point]"},
      {"compound": "C=CS(=O)(=O)N(Cc1ccccc1Br)[C@H](CO)CC(C)C", "Potency": "inconclusive: 25.9 µM [cytotoxic, single point]"},
      {"compound": "O=C(C[n+]1ccccc1)Nc1ccccc1Br", "Potency": "inactive"},
      {"compound": "CCCN(C(=O)COc1ccc(C(C)=O)cc1OC)C1CCS(=O)(=O)C1", "note": "(stereo unspecified)", "Potency": "inactive"},
      {"compound": "CC1CCCN(C2=C(NS(=O)(=O)c3ccc(Cl)cc3)C(=O)c3ccccc3C2=O)C1", "note": "(stereo unspecified)", "Potency": "inconclusive: 5.17 µM [cytotoxic, partial curve, poor fit]"},
      {"compound": "COc1ccc2c(=O)c3ccccc3oc2c1", "Potency": "inconclusive: 23.1 µM [cytotoxic, single point]"},
      {"compound": "CC(=O)Nc1ccc(S(=O)(=O)NCCC(=O)N2CCN(C(c3ccccc3)c3ccccc3)CC2)cc1", "Potency": "inactive"},
      {"compound": "Cc1ccc(F)cc1C(=O)N1CCCCC1c1cc(C(=O)NCc2ccccc2)no1", "note": "(stereo unspecified)", "Potency": "inactive"},
      {"compound": "O=C(CCc1nc(-c2ccccc2)no1)NC1CCCCC1", "Potency": "active: 20.6 µM"},
      {"compound": "CC(=O)c1ccc(S(=O)(=O)N2CCC3(CC2)CC(=O)c2ccccc2O3)cc1", "Potency": "inconclusive: 10.3 µM [cytotoxic, partial curve, poor fit]"},
      {"compound": "COc1ccc(S(=O)(=O)N(C)c2ccc(C(=O)N3CCCC3)cc2)cc1", "Potency": "inconclusive: 29.1 µM [cytotoxic, single point]"},
      {"compound": "COc1cccc2sc3ccc(NCCC4CCCN4C)cc3c(=O)c12", "note": "(stereo unspecified)", "Potency": "inactive"},
      {"compound": "COc1ccc(-c2oc3cc(O)c(OC)c(O)c3c(=O)c2OC)cc1O", "Potency": "active: 0.651 µM"},
      {"compound": "CCOC(=O)c1cnc(-n2nc(C)cc2C)nc1NNc1ncc(-c2ccccc2)cn1", "Potency": "inconclusive: 14.6 µM [cytotoxic, partial curve, poor fit]"},
      {"compound": "CCCCc1ccc(NC(=S)NCCN2CCOCC2)cc1", "Potency": "inconclusive: 0.0517 µM [cytotoxic, full curve]"},
      {"compound": "Cc1cc(=O)nc2c3ccccc3n(CC(=O)NC(C)c3ccc4c(c3)OCCO4)n12", "note": "(stereo unspecified)", "Potency": "inactive"},
      {"compound": "COc1ccc(C(C#N)=C2C=CC(=NO)c3ccccc32)cc1", "Potency": "active: 1.3 µM"},
      {"compound": "Cc1nn(-c2ccc(F)cc2)c(-n2cccc2)c1C(=O)N1CCN(c2ccccc2)CC1", "Potency": "active: 20.6 µM"},
      {"compound": "COCCN1C(=O)N[C@@H](c2cccc(F)c2)C(C(=O)OC)=C1C", "Potency": "inactive"},
      {"compound": "CC(C)(CSc1ccccn1)NS(=O)(=O)c1ccccc1", "Potency": "inconclusive: 29.1 µM [cytotoxic, partial curve, poor fit]"},
      {"compound": "Nc1nnc(SCC(=O)NC2CCCCCC2)s1", "Potency": "inactive"},
      {"compound": "CN(C)c1ccc(/C=C/c2ccc3cc(N)ccc3n2)cc1", "Potency": "inactive"},
      {"compound": "Cc1ccc(NC(=S)N(CCN(C)C)Cc2cc3cccc(C)c3[nH]c2=O)cc1", "Potency": "active: 3.26 µM"},
      {"compound": "CC(C)c1ccc(NC(=S)N2CCN(C)CC2)cc1", "Potency": "inactive"},
      {"compound": "CCCN(CCC)C(=O)Cn1c(=O)n(-c2ccc(C)c(C)c2)c(=O)c2c3c(sc21)CCCCC3", "Potency": "inactive"},
      {"compound": "COc1ccc(Cc2noc(CN3CCN(C4CCc5ccccc5C4)CC3)n2)cc1OC", "note": "(stereo unspecified)", "Potency": "inactive"},
      {"compound": "O=C(O)C1Nc2c(O)cc(Cl)c([N+](=O)[O-])c2C2C=CCC12", "note": "(stereo unspecified)", "Potency": "inactive"},
      {"compound": "Cc1ccc(NC(=O)C2CCN(S(=O)(=O)c3ccc4[nH]c(=O)oc4c3)CC2)cc1F", "Potency": "inconclusive: 2.31 µM [rising, partial curve, poor fit]"},
      {"compound": "COc1ccc(C(=O)N[C@H](C(=O)NCc2ccc(C)cc2)C(C)C)cc1", "Potency": "inconclusive: 0.291 µM [cytotoxic, full curve, poor fit]"},
      {"compound": "COc1ccccc1N1CCN(C(=O)c2cc(-c3ccc(C)cc3)on2)CC1", "Potency": "inconclusive: 29.1 µM [cytotoxic, single point]"},
      {"compound": "Cc1ccc(CN2C(=O)N(c3ccc(F)cc3)C(=O)C2CC(=O)Nc2ccc(Cl)cc2)cc1", "note": "(stereo unspecified)", "Potency": "inactive"},
      {"compound": "COc1ccc(/C=C/C(=O)c2nc3ccccc3n2CC(=O)c2ccc(OC)cc2)cc1", "Potency": "active: 23.1 µM"},
      {"compound": "COc1ccc(N(CC(=O)NCc2cccs2)S(=O)(=O)c2ccc(C(C)=O)cc2)cc1", "Potency": "inactive"},
      {"compound": "Cc1ccc(C)c(Cn2c3ccccc3c3cnn(CC(=O)NC4CCC(C)CC4)c(=O)c32)c1", "note": "(stereo unspecified)", "Potency": "inactive"},
      {"compound": "COc1ccc(Cc2noc(CN(C)Cc3ccc(-n4cccn4)cc3)n2)cc1OC", "Potency": "inconclusive: 10.3 µM [cytotoxic, partial curve]"},
      {"compound": "Nc1nc2ncc(CNc3ccc(C(=O)NC(CCC(=O)O)C(=O)O)cc3)nc2c(=O)[nH]1", "note": "(stereo unspecified)", "Potency": "inconclusive: 3.26 µM [rising, partial curve]"},
      {"compound": "CCNC(=O)Cc1c(OC)ccc2cc(Br)ccc12", "Potency": "inactive"},
      {"compound": "O=C(Nc1cccc(S(=O)(=O)Nc2ccc(Cl)cc2)c1)c1cc2c(s1)CCCC2", "Potency": "inactive"},
      {"compound": "CSc1cc(-c2ccc(Cl)cc2)c(C(=O)N2CCCC2)s1", "Potency": "inconclusive: 32.6 µM [cytotoxic, single point]"},
      {"compound": "O=C(O)c1ccc(NC2=C(Cl)C(=O)c3ccccc3C2=O)cc1", "Potency": "inactive"},
      {"compound": "CCOC(=O)c1cc(-c2ccc(C)cc2)n(CC(=O)Nc2ccccc2F)c1C", "activity change, negative = cytotoxicity": "inconclusive: -47.3% [cytotoxic]"},
      {"compound": "Cc1ccc(O)c(N=Nc2ccc(S(=O)(=O)N3CCOCC3)cc2)c1", "Potency": "inconclusive: 29.1 µM [cytotoxic, single point]"}
    ]}
  ]
}
